Experimental data published in the supplement of paper PMC3682954.
Several values for one entry are separate records, joined by “and”; a condition that tells them apart may be missing. Identical values can stand only once. Counter-ions that a name gives are not always drawn. ± gives the standard deviation of the averaged measurements. The list shows a part of the results. Single values are uncertain, as repeats are few or missing.

Test system: RAW 264.7
Assay: cell viability (MTT) relative to vehicle control; higher = more viable cells
Conditions: stimulus: HMGB1 5 ug/ml, 18 h
[1] = compound concentration: 1 ug/ml

Compound | cell viability (compound concentration: 3 uM) [%] | cell viability [1]
c1ccc2sc(C3(N4CCCCC4)CCCCC3)cc2c1 [BTCP hydrochloride] | 89.7 | –
COc1cc(CC(C)N)c(OC)cc1I (racemic) [(±)-DOI hydrochloride] | 91.8 | –
C[N+]1(C)C2CCC1CC(OC(=O)c1c[nH]c3ccccc13)C2 (centres undefined) [3-Tropanylindole-3-carboxylate methiodide] | 124 | –
N#C/C(=C\c1ccc(O)c(O)c1)C(N)=S [Tyrphostin 47] | 118 | –
C[C@@H]1CN([C@H]2CC[C@](C#N)(c3ccc(F)cc3)CC2)CC[C@]1(C(=O)O)c1ccccc1 [Levocabastine] | 99 | –
C[C@@H]1CN([C@H]2CC[C@](C#N)(c3ccc(F)cc3)CC2)CC[C@]1(C(=O)O)c1ccccc1 [Levocabastine hydrochloride] | 87.1 | –
CCCC[N+]1(C)[C@@H]2C[C@@H](OC(=O)[C@H](CO)c3ccccc3)C[C@H]1[C@@H]1O[C@@H]12 (single isomer, unassigned; (-)) [(-)-Scopolamine,n-Butyl-, bromide] | 118 | –
COc1ccc(C(=O)OC2C[C@H]3CC[C@@H](C2)N3C)cc1OC (some centres undefined) [Convolamine hydrochloride] | 113 | –
CN1CC(CNC(=O)OCc2ccccc2)CC2c3cccc4c3c(cn4C)CC21 (centres undefined) [Metergoline phenylmethyl ester] | – | 97.9%
CCC1(CC)C(=O)NC(=O)NC1=O | 101 | –
C=CCC1(CC(C)C)C(=O)NC(=O)NC1=O [Butalbital] | 115 | –
O=C(CCCN1CCC(n2c(=O)[nH]c3ccccc32)CC1)c1ccc(F)cc1 [Benperidol] | 102 | –
O=C1CCO1 | 87.5 ± 4.3 | –
C[C@@H]1CC[C@]2(NC1)O[C@H]1C[C@H]3[C@@H]4CC=C5C[C@@H](O)CC[C@]5(C)[C@H]4CC[C@]3(C)[C@H]1[C@@H]2C [Solasodine] | – | 93.5%
CN[C@@H]1[C@H]2[C@@H]3CCN2C[C@H]1O3 [Loline] | – | 84.3%
COc1ccc(OC)c(C(O)C(C)N)c1 (centres undefined) [Methoxamine hydrochloride] | 90.1 ± 14 | –
COc1ccc(OC)c(C(O)C(C)N)c1 (centres undefined) | 109 | –
Cc1ccc2[nH]cc(CCN)c2c1 [5-Methyltryptamine Hydrochloride] | – | 101%
CCC(=O)O[C@H]1CC[C@H]2[C@@H]3CCC4=CC(=O)CC[C@]4(C)[C@H]3CC[C@]12C [Testosterone propionate] | 143 | –
CCC(=O)O[C@H]1CC[C@H]2[C@@H]3CCC4=CC(=O)CC[C@]4(C)[C@H]3CC[C@]12C | 112 | –
C/C(O)=C(\C#N)C(=O)Nc1cc(Br)ccc1Br | 108 | –

Compound | cell viability (compound concentration: 3 uM) [%] | cell viability [1]
CCN1CC2(COC(=O)c3ccccc3N3C(=O)CC(C)C3=O)CC[C@H](OC)[C@@]34C5C[C@@H]6[C@@H](OC)C[C@@](O)(C5[C@H]6OC)[C@](O)([C@@H](OC)C23)[C@@H]14.[O-][Cl+3]([O-])([O-])O (some centres undefined) | – | 96.8%
CCCC(C)(COC(N)=O)COC(=O)NC(C)C (centres undefined) | 108 | –
CCCC(C)(COC(N)=O)COC(=O)NC(C)C (centres undefined) [Carisoprodol] | 109 ± 9.2 | –
CCC1(C)CC(=O)NC(=O)C1 [Bemegride] | 118 | –
C[C@@]12C(=O)OC(=O)[C@]1(C)[C@H]1CC[C@@H]2O1 | 20.9 | –
C[C@@]12C(=O)OC(=O)[C@]1(C)[C@H]1CC[C@@H]2O1 [Cantharidin] | 30.5 ± 6.4 | 33.5%
COC(C)(C)CCC[C@H](C)C/C=C/C(C)=C/C(=O)OC(C)C | 105 ± 5.9 | –
Cl[C@H]1[C@H](Cl)[C@@H](Cl)[C@@H](Cl)[C@H](Cl)[C@H]1Cl | 115 | –
Oc1ccc(Cl)cc1Cc1cc(Cl)ccc1O | 98.9 | –
OC(c1ccccc1)(c1ccccc1)C1CCNCC1 [Azacyclonol] | 102 | –
CC[C@H]1CN2CC[C@H]1C[C@@H]2[C@@H](O)c1ccnc2ccccc12 [Hydrocinchonine] | – | 96.9%
NC(=O)OCCCc1ccccc1 | 94.2 | –
NC1CCc2cc(O)c(O)cc2C1 (centres undefined) [6,7-ADTN hydrobromide] | 101 | –
N[C@@H]1C[C@H]1c1ccccc1.N[C@H]1C[C@@H]1c1ccccc1 [Tranylcypromine] | 114 | –
N[C@@H]1C[C@H]1c1ccccc1.N[C@H]1C[C@@H]1c1ccccc1 | 112 | –
NC(CP(=O)(O)O)C(=O)O (racemic) [(±)-2-Amino-3-phosphonopropionic acid] | 102 | –
CN1CC2C[C@@H](C1)Cn1c2cccc1=O | – | 102%
N=C(NCc1ccc(Cl)cc1)SCCCc1c[nH]cn1 [Clobenpropit] | 103 | –
C[N+]1(C)CCCC(OC(=O)C(O)(c2ccccc2)c2ccccc2)C1 (centres undefined) [Mepenzolate bromide] | 109 | –
C[N+]1(C)CCCC(OC(=O)C(O)(c2ccccc2)c2ccccc2)C1 (centres undefined) | 97.5 | –
COc1cc(N)c(Cl)cc1C(=O)NC1CN2CCC1CC2 (centres undefined) [Zacopride] | 95.2 | –

Compound | cell viability (compound concentration: 3 uM) [%] | cell viability [1]
O=C1C=CC(=O)C=C1 [p-Benzoquinone] | 110 | –
COc1ccc2c(c1OC)C(=O)OC2C1c2cc3c(cc2CCN1C)OCO3 (single isomer, unassigned; (+)) [(+)-Hydrastine] | 107 | –
CC(=O)[C@H]1CC[C@H]2[C@@H]3CC[C@H]4C[C@H](O)CC[C@]4(C)[C@H]3C(=O)C[C@]12C [5alpha-Pregnan-3alpha-ol-11,20-dione] | 99.2 | –
CC(=O)[C@H]1CC[C@H]2[C@@H]3CC[C@H]4C[C@H](O)CC[C@]4(C)[C@H]3C(=O)C[C@]12C [Alfaxalone] | 78.4 | –
CC(=O)c1c(O)c(C)c(O)c(Cc2c(O)c3c(c(C(=O)/C=C/c4ccccc4)c2O)OC(C)(C)C=C3)c1O [Rottlerin] | 98.6 | 77.1%
COc1ccccc1N1CCNCC1 [1-(2-Methoxyphenyl)piperazine hydrochloride] | 116 | –
C=C1[C@@H](C)[C@H]2[C@H](Cc3ccccc3)NC(=O)[C@]23[C@H](OC(C)=O)/C=C/[C@@](C)(O)C(=O)[C@@H](C)C/C=C/[C@H]3[C@@H]1O | 95 | –
O=CN1C[C@@H]2C[C@H](C1)c1cccc(=O)n1C2 | – | 97.8%
C=C1C[C@@H]2[C@H](CC[C@]3(C)C(=O)CC[C@@H]23)[C@@]2(C)C=CC(=O)C=C12 | 105 ± 1.9 | –
C=C1C[C@@H]2[C@H](CC[C@]3(C)C(=O)CC[C@@H]23)[C@@]2(C)C=CC(=O)C=C12 [Exemestane] | 110 | –
O=C1c2ccccc2C(=O)N1CCN1CC2CC(C1)c1cccc(=O)n1C2 (centres undefined) | – | 95.1% and 85%
O=C(O)c1cc[c]([Hg][Cl])cc1 [4-Chloromercuribenzoic acid] | 108 | –
FC(F)(F)c1cccc(N2CCNCC2)c1 | 99.4 | –
CC1=NN=C(c2ccc(N)cc2)c2cc3c(cc2C1)OCO3 | 107 | –
C[C@]12C/C(=C/O)C(=O)C[C@@H]1CC[C@@H]1[C@@H]2CC[C@@]2(C)[C@H]1CC[C@]2(C)O [Oxymetholone] | 104 | –
CC(C)=CCC[C@]1(C)C=Cc2c(O)c3c(c(CC=C(C)C)c2O1)O[C@]12C(=C[C@@H]4C[C@H]1C(C)(C)O[C@@]2(C/C=C(/C)C(N)=O)C4=O)C3=O | 3.46 | –
COP(=S)(OC)Oc1ccc(Sc2ccc(OP(=S)(OC)OC)cc2)cc1 | 111 | –
CC(C)CC1C(=O)N2CCCC2C2(O)OC(NC(=O)C3C=C4c5cccc6[nH]cc(c56)CC4N(C)C3)(C(C)C)C(=O)N12 (stereo not drawn) [alpha-Ergocryptine] | – | 103%
CC1=C(C2=C(C)C(=O)c3c(c(C=O)c(O)c(O)c3C(C)C)C2=O)C(=O)c2c(C=O)c(O)c(O)c(C(C)C)c2C1=O [Gossypolone] | – | 119%
CCOP(=S)(OCC)Oc1nc(Cl)c(Cl)cc1Cl | 96.8 | –
CCCN1CCO[C@@H]2c3cc(O)ccc3OC[C@H]21 [S(+)-PD 128,907 hydrochloride] | 101 | –

Compound | cell viability (compound concentration: 3 uM) [%] | cell viability [1]
CCCN1CCO[C@@H]2c3cc(O)ccc3OC[C@H]21 (racemic) [(±)-PD 128,907 hydrochloride] | 90.2 | –
c1ccc2c3c([nH]c2c1)CNCC3 | 98 | –
CCCCCCCCCCCCCCCC[n+]1ccccc1 | 90.3 | –
C=CCC1(C(C)CCC)C(=O)NC(=S)NC1=O (centres undefined) | 98 | –
C[C@@H]1O[C@@H](O[C@H]2C[C@@H](O)[C@]3(CO)[C@H]4[C@H](O)C[C@]5(C)[C@@H]([C@@H]6COC(=O)C6)CC[C@]5(O)[C@@H]4CC[C@]3(O)C2)[C@H](O)[C@H](O)[C@H]1O [Dihydroouabain] | 112 | –
NCC(O)c1cccc(O)c1 (racemic) [DL-Norphenylephrine hydrochloride] | – | 91.2%
O=C(O)[C@@H]1CCN1 [L-azetidine-2-carboxylic acid] | 101 | –
CC(=O)NC1CCSC1=O (centres undefined) | 113 | –
O=C(O)Cc1cnc[nH]1 [Imidazole-4-acetic acid hydrochloride] | 104 | –
CNC(=O)Oc1ccccc1OC(C)C | 113 | –
C[C@]12COC(=O)C[C@@H]1CC[C@@H]1[C@@H]2CC[C@@]2(C)[C@H]1CC[C@]2(C)O [Oxandrolone] | 92 | –
CCCn1c(C)c(C(=O)c2cccc3ccccc23)c2ccccc21 | 96 | –
O=P1(N(CCCl)CCCl)NCCCO1 (centres undefined) | 100.9 ± 0.16 | –
O=P1(N(CCCl)CCCl)NCCCO1 (centres undefined) [Cyclophosphamide] | 107 ± 6 | –
O=P1(N(CCCl)CCCl)NCCCO1 (centres undefined) [Cyclophosphamide monohydrate] | 95.6 | –
c1ccc2c(c1)sc1ccccc12 | 97.465 ± 0.092 | –
CC(=O)OCC1=C(C(=O)[O-])N2C(=O)[C@@H](NC(=O)CCC[C@@H](N)C(=O)[O-])[C@H]2SC1.[Zn+2] [Cephalosporin C zinc salt] | 102 | –
CN1C(=O)CCS(=O)(=O)C1c1ccc(Cl)cc1 (centres undefined) | 110 | –
CN1C(=O)CCS(=O)(=O)C1c1ccc(Cl)cc1 (centres undefined) [Chlormezanone] | 98.7 ± 5.7 | –
